This passage reports self-aminoacylation results from the supplement of paper PMC9233669.

Variants at the floor of the assay are shown more often than the library holds them.

In one data set the test system is biotinyl-Ile-oxazolone. The data set can be described thus: self-aminoacylation, catalytic enhancement (BIO) (fold over background); higher = more active; k-Seq, kA / k0A0; sequences stand for … in GGGAAUGGAUCCACAUCUACGAAUUC…UUCACUGCAGACUUGACGAAGCUG
The essentials:
(§1)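 Catalytic enhancement equals the median kA over the uncatalyzed rate, the latter read from the low-activity peak of a bimodal Gaussian fit. Values of kA came from fitting each sequence's fraction reacted to a pseudo-first-order model, with 1000 bootstraps. Reacted RNA was captured with streptavidin and quantified by triplicate qPCR and Illumina sequencing after 90 minutes at room temperature with 2–1250 μM biotinyl-aminoacyl-oxazolone and 0.43 μM mutagenized RNA pools bearing a 21-nt variable region.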

A further data set relates to biotinyl-Phe-oxazolone. The data set can be described thus: self-aminoacylation, catalytic enhancement (BFO) (fold over background); higher = more active; k-Seq, kA / k0A0; sequences stand for … in GGGAAUGGAUCCACAUCUACGAAUUC…UUCACUGCAGACUUGACGAAGCUG
A digest of the protocol: as §1

A further data set relates to biotinyl-Met-oxazolone. The data set can be described thus: self-aminoacylation, catalytic enhancement (BMO) (fold over background); higher = more active; k-Seq, kA / k0A0; sequences stand for … in GGGAAUGGAUCCACAUCUACGAAUUC…UUCACUGCAGACUUGACGAAGCUG
The essentials: as §1

Another data set deals with biotinyl-Leu-oxazolone. The data set can be described thus: self-aminoacylation, catalytic enhancement (BLO) (fold over background); higher = more active; k-Seq, kA / k0A0; sequences stand for … in GGGAAUGGAUCCACAUCUACGAAUUC…UUCACUGCAGACUUGACGAAGCUG
The essentials: as §1

In the next data set the test system is biotinyl-Trp-oxazolone. The data set can be described thus: self-aminoacylation, catalytic enhancement (BWO) (fold over background); higher = more active; k-Seq, kA / k0A0; sequences stand for … in GGGAAUGGAUCCACAUCUACGAAUUC…UUCACUGCAGACUUGACGAAGCUG
The essentials:
as §1

In another data set the test system is biotinyl-Val-oxazolone. The data set can be described thus: self-aminoacylation, catalytic enhancement (BVO) (fold over background); higher = more active; k-Seq, kA / k0A0; sequences stand for … in GGGAAUGGAUCCACAUCUACGAAUUC…UUCACUGCAGACUUGACGAAGCUG
A digest of the protocol: as §1

With “CCACACUGCAAGCUAUCGGUC [Fam1B.1 aminoacylation ribozyme variant]”, the self-aminoacylation in the data set on biotinyl-Ile-oxazolone was 1.37; with biotinyl-Phe-oxazolone, 1.1; in the data set with biotinyl-Met-oxazolone, 0.809; with biotinyl-Leu-oxazolone, 1.34; with biotinyl-Trp-oxazolone, 1.06; with biotinyl-Val-oxazolone, 1.75.

Take “CCACACUUGAAGCAGUCGGUC [Fam1B.1 aminoacylation ribozyme variant]”: the self-aminoacylation with biotinyl-Ile-oxazolone is 1.13; in the data set with biotinyl-Phe-oxazolone it was 0.862; in the data set on biotinyl-Met-oxazolone it was 0.93; in the data set on biotinyl-Leu-oxazolone it was 1.12; in the data set on biotinyl-Trp-oxazolone it was 0.845; in the data set with biotinyl-Val-oxazolone, 1.06.

With “ACUCACCUAGGUCAUCAGGUG [Fam2.2 aminoacylation ribozyme variant]”, the self-aminoacylation in the data set with biotinyl-Ile-oxazolone was determined as 1.3; in the data set on biotinyl-Phe-oxazolone, 1.52; in the data set with biotinyl-Met-oxazolone, 1.1; in the data set with biotinyl-Leu-oxazolone, 1.04; in the data set on biotinyl-Trp-oxazolone, 1.82; with biotinyl-Val-oxazolone it was 1.22.

Consider “ACUCACCUAGGUCAUCGGUUG [Fam2.2 aminoacylation ribozyme variant]”, for which the self-aminoacylation in the data set on biotinyl-Ile-oxazolone turned out to be 1.42; in the data set with biotinyl-Phe-oxazolone, 1; in the data set on biotinyl-Met-oxazolone, 1.19; in the data set on biotinyl-Leu-oxazolone, 1.19; in the data set with biotinyl-Trp-oxazolone, 1.72; in the data set with biotinyl-Val-oxazolone it was 1.3.

As to “CUACUUCAAACAAUCUGUGUG [Fam1A.1 aminoacylation ribozyme variant]”, the self-aminoacylation in the data set on biotinyl-Ile-oxazolone came to 1.25; with biotinyl-Phe-oxazolone it was 1.38; with biotinyl-Met-oxazolone it was 1.28; in the data set with biotinyl-Leu-oxazolone it was 1.48; with biotinyl-Trp-oxazolone it was 0.98; with biotinyl-Val-oxazolone, 1.04.

In the case of “AAUCGCCUAGGUCAUCGGGUG [Fam2.2 aminoacylation ribozyme variant]”, the self-aminoacylation in the data set with biotinyl-Ile-oxazolone is 6.97; in the data set with biotinyl-Phe-oxazolone, 72.9; with biotinyl-Met-oxazolone, 10.4; in the data set with biotinyl-Leu-oxazolone it was 9.78; in the data set with biotinyl-Trp-oxazolone, 10; with biotinyl-Val-oxazolone, 8.02.

For “AUUCACCUAGGGCAUCGUGUG [Fam2.2 aminoacylation ribozyme variant]”, the self-aminoacylation in the data set on biotinyl-Ile-oxazolone came out at 0.742; in the data set on biotinyl-Phe-oxazolone it was 0.773; in the data set with biotinyl-Met-oxazolone it was 0.813; with biotinyl-Leu-oxazolone, 0.708; in the data set with biotinyl-Trp-oxazolone it was 0.529; in the data set on biotinyl-Val-oxazolone it was 0.729.

On to “AAGUUAGCUAAUAGUCGUAAG [Fam3.1 aminoacylation ribozyme variant]”, for which the self-aminoacylation is 1.45 in the data set with biotinyl-Ile-oxazolone; 14 with biotinyl-Phe-oxazolone; 1.35 in the data set on biotinyl-Met-oxazolone; 1.23 in the data set on biotinyl-Leu-oxazolone; 3.54 with biotinyl-Trp-oxazolone; 1.47 in the data set with biotinyl-Val-oxazolone.

“AUUCACCUAGGUCAGCAGGUG [Fam2.2 aminoacylation ribozyme variant]”: the self-aminoacylation with biotinyl-Ile-oxazolone was 1.2; in the data set on biotinyl-Phe-oxazolone, 1.04; in the data set on biotinyl-Met-oxazolone, 1.41; in the data set on biotinyl-Leu-oxazolone it was 1.2; in the data set with biotinyl-Trp-oxazolone it was 0.93; with biotinyl-Val-oxazolone, 1.21.

Turning to “AUUACCCUGGUCAUCGAGUCC [Fam2.1 aminoacylation ribozyme variant]”, the self-aminoacylation in the data set on biotinyl-Ile-oxazolone was determined as 0.721; in the data set with biotinyl-Phe-oxazolone, 0.596; in the data set with biotinyl-Met-oxazolone it was 0.77; with biotinyl-Leu-oxazolone it was 0.824; in the data set on biotinyl-Trp-oxazolone, 0.613; in the data set with biotinyl-Val-oxazolone it was 0.772.

With “AUUCACACAGGUCAUCGGGUG [Fam2.2 aminoacylation ribozyme variant]”, the self-aminoacylation in the data set with biotinyl-Ile-oxazolone was determined as 4.03; in the data set on biotinyl-Phe-oxazolone it was 39.6; in the data set on biotinyl-Met-oxazolone, 5.6; in the data set with biotinyl-Leu-oxazolone, 7.14; with biotinyl-Trp-oxazolone it was 5.26; in the data set on biotinyl-Val-oxazolone it was 4.47.

Regarding “CCACGCUUCAAGCAAUCGUUC [Fam1B.1 aminoacylation ribozyme variant]”, the self-aminoacylation with biotinyl-Ile-oxazolone is 0.545; in the data set on biotinyl-Phe-oxazolone, 1.32; in the data set on biotinyl-Met-oxazolone, 0.471; in the data set with biotinyl-Leu-oxazolone, 0.545; in the data set with biotinyl-Trp-oxazolone it was 0.659; in the data set with biotinyl-Val-oxazolone, 0.523.

In the case of “CCACACUUCAAGCAAUUUGUC [Fam1B.1 aminoacylation ribozyme variant]”, the self-aminoacylation in the data set on biotinyl-Ile-oxazolone was found to be 0.66; in the data set with biotinyl-Phe-oxazolone, 0.856; in the data set on biotinyl-Met-oxazolone, 0.597; in the data set with biotinyl-Leu-oxazolone, 0.578; in the data set on biotinyl-Trp-oxazolone it was 0.663; in the data set on biotinyl-Val-oxazolone, 0.844.

Take “CCAAACUUAAAGCAAUCGGUC [Fam1B.1 aminoacylation ribozyme variant]”: the self-aminoacylation with biotinyl-Ile-oxazolone is 1.03; in the data set with biotinyl-Phe-oxazolone it was 0.732; with biotinyl-Met-oxazolone, 0.795; in the data set on biotinyl-Leu-oxazolone, 0.877; with biotinyl-Trp-oxazolone, 0.71; in the data set with biotinyl-Val-oxazolone, 1.04.

For “AUUACCAUGGUCAUCGAGUUA [Fam2.1 aminoacylation ribozyme variant]”, the self-aminoacylation turned out to be 1.17 in the data set on biotinyl-Ile-oxazolone; 0.747 in the data set on biotinyl-Phe-oxazolone; 1.02 in the data set with biotinyl-Met-oxazolone; 0.836 in the data set with biotinyl-Leu-oxazolone; 0.506 in the data set on biotinyl-Trp-oxazolone; 1.21 in the data set with biotinyl-Val-oxazolone.

“CCACACUGAAAGCAAUCGGUC [Fam1B.1 aminoacylation ribozyme variant]”: the self-aminoacylation came out at 1.27 in the data set on biotinyl-Ile-oxazolone; 0.942 in the data set on biotinyl-Phe-oxazolone; 0.951 in the data set on biotinyl-Met-oxazolone; 0.84 in the data set on biotinyl-Leu-oxazolone; 0.745 in the data set on biotinyl-Trp-oxazolone; 1.06 with biotinyl-Val-oxazolone.

With “UUUACCCUGGUCAUUGAGUGA [Fam2.1 aminoacylation ribozyme variant]”, the self-aminoacylation in the data set with biotinyl-Ile-oxazolone stood at 3.76; with biotinyl-Phe-oxazolone, 38.1; in the data set on biotinyl-Met-oxazolone, 7.86; with biotinyl-Leu-oxazolone it was 7.06; with biotinyl-Trp-oxazolone, 10.1; in the data set with biotinyl-Val-oxazolone it was 3.91.

On to “CCACACUUCUAGCUAUCGGUC [Fam1B.1 aminoacylation ribozyme variant]”, for which the self-aminoacylation is 0.898 with biotinyl-Ile-oxazolone; 1.02 in the data set with biotinyl-Phe-oxazolone; 0.752 in the data set on biotinyl-Met-oxazolone; 0.663 with biotinyl-Leu-oxazolone; 0.594 in the data set with biotinyl-Trp-oxazolone; 1.07 in the data set on biotinyl-Val-oxazolone.

Turning to “CCACUCUUCAAACAAUCGGUC [Fam1B.1 aminoacylation ribozyme variant]”, the self-aminoacylation was 1.23 in the data set on biotinyl-Ile-oxazolone; 78.3 in the data set with biotinyl-Phe-oxazolone; 1.44 in the data set with biotinyl-Met-oxazolone; 2.04 with biotinyl-Leu-oxazolone; 41.8 in the data set on biotinyl-Trp-oxazolone; 1.3 in the data set with biotinyl-Val-oxazolone.

With “CUACUUCAAACAAUGGGUUUG [Fam1A.1 aminoacylation ribozyme variant]”, the self-aminoacylation was 0.96 in the data set on biotinyl-Ile-oxazolone; 0.542 in the data set with biotinyl-Phe-oxazolone; 0.963 with biotinyl-Met-oxazolone; 0.88 in the data set with biotinyl-Leu-oxazolone; 0.957 with biotinyl-Trp-oxazolone; 0.871 in the data set on biotinyl-Val-oxazolone.

“CCUCACCUCAAGCAAUCGGUC [Fam1B.1 aminoacylation ribozyme variant]”: the self-aminoacylation stood at 1.02 with biotinyl-Ile-oxazolone; 4.38 in the data set on biotinyl-Phe-oxazolone; 0.79 in the data set on biotinyl-Met-oxazolone; 0.963 in the data set with biotinyl-Leu-oxazolone; 2.12 in the data set on biotinyl-Trp-oxazolone; 1.3 in the data set on biotinyl-Val-oxazolone.
